{
  "source": "patent US20260284208A1",
  "about": "“SYSTEM” (Oxford University Innovation Limited, priority 2023, published 2026)",
  "system": "library of 8,380 IKZF3 degrons (ZF-eGFP/mCherry reporter) in Jurkat cells",
  "assay": "Pooled library screen (FACS, NGS, limma voom LogFC of positive vs negative read counts)",
  "type": "cell-based, human",
  "protocol": "A library of 8,380 IKZF3 degrons was cloned into pLVX-Sprout to create the eGFP/mCherry protein degradation reporter plasmid pool. A lentivirus pool was then generated using the Lenti-X lentiviral vector production method.\nJurkat cells were transduced at a multiplicity of infection of <0.3 with the lentivirus vector library in order to maximise the number of cells with a single integration. Transductions were carried out in 6 well TC-treated cell culture dishes (Falcon) with 3×10^6 cells per well. Cells were incubated for 2 days at 37° C. and 5% CO2 before the supernatant was removed and replaced with fresh media. 6 days post-transduction, mCherry+ cells were isolated via FACS using the FACS Aria Fusion (BD) in a buffer containing PBS (Gibco), 2 mM EDTA (Gibco), 25 mM HEPES (Sigma) and 1% BSA (Sigma). 8 days later, cells were treated with DMSO or a thalidomide analog for 18 hours at 37° C. and 5% CO2. mCherry+GFPlow and NOT(mCherry+GFPlow) cells were sorted by FACS using the FACS Aria Fusion (BD). DMSO treated cells were used to set the mCherry+GFPlow gate and dead cells were excluded from sorting by staining cells with 1 μg/mL DAPI (ThermoFisher). gDNA was isolated using the Maxwell RSC 48 (Promega). gDNA from cells that were unsorted and untreated were also isolated to determine the library representation on the day of compound treatment. Throughout the screen >600× coverage of the library was maintained. 3 biological replicates were carried out with a new transduction taking place each time.\nA two-step PCR was used where the first PCR (PCR1) amplified the integrated degron sequence from gDNA and the second PCR (PCR2) added Illumina adaptors and barcodes to permit multiplexing. See Supp F for PCR1 and PCR2 primers. Q5 Hot Start High-Fidelity 2× Master Mix (New England Biolabs) was used for both PCRs. Sufficient gDNA was amplified in PCR1 in order to maintain >600× coverage and amplicons were purified using solid phase reversible immobilization (SPRI) beads (Beckman Coulter). Purified PCR1 products were analysed on the Tapestation 4200 (Agilent) to confirm purity prior to proceeding to PCR2. Sufficient PCR1 product was amplified in PCR2 in order to maintain >600× coverage and amplicons were run on a 2% agarose TAE gel. Target bands were excised and purified using the NucleoSpin Gel and PCR Clean-up Kit (Machery Nagel). Amplicons were analysed on the Tapestation 4200 and quantified using Qubit dsDNA HS kit (ThermoFisher). PCR products were pooled and sequenced as paired-reads on the NovaSeq (Illumina) using a SP2 200 cycles kit (Illumina).\nCount distributions, percentage of read mapping, library coverage and replicate correlation per sample were assessed for QC purposes.\nTo carry out the library screen, we used the same plasmid construct as in our earlier flow cytometry assays, but pooling all 8,380 mutants together into one Jurkat population, ensuring a copy number of one plasmid per cell (FIG. 4B). […] These GFP-negative cells were then separated from the remaining GFP-positive population using fluorescence activated cell sorting (FACS). These two populations were then sequenced and the relative abundance of every mutant in both populations compared to provide a log FC value for each mutant sequence. This value indicated how frequently a sequence is observed in the GFP-negative population relative to the GFP-positive population, and therefore how effective a degron it is for that particular IMID compound.",
  "note": "Further values from the same series stand in other lists.",
  "data": [
    {"smiles": "O=C1CCC(N2C(=O)c3ccc(N4CCOCC4)cc3C2=O)C(=O)N1", "note": "(stereo not drawn) [B03]", "values": [
      {"measurement": "B03_logFC", "setting": "Degron-ID 1190, SEQ ID NO 4245, 46F_47F_49P_50V_52G_53A_54M_55F_67L_", "value": 2.303},
      {"measurement": "B03_logFC", "setting": "Degron-ID 1192, SEQ ID NO 3903, 46F_47F_49P_50V_52G_53A_54P_55F_67L", "value": 2.843},
      {"measurement": "B03_logFC", "setting": "Degron-ID 1194, SEQ ID NO 3673, 46F_47F_49P_50V_52G_53A_54R_55F_67L_", "value": 3.29},
      {"measurement": "B03_logFC", "setting": "Degron-ID 1195, SEQ ID NO 3713, 46F_47F_49P_50V_52G_53A_54S_55F_67L_", "value": 3.181},
      {"measurement": "B03_logFC", "setting": "Degron-ID 1261, SEQ ID NO 3847, 46F_47G_49E_50I_52G_53A_54C_55F_67L", "value": 2.928},
      {"measurement": "B03_logFC", "setting": "Degron-ID 1274, SEQ ID NO 4270, 46F_47G_49E_50I_52G_53A_54R_55F_67L_", "value": 2.263},
      {"measurement": "B03_logFC", "setting": "Degron-ID 1275, SEQ ID NO 4349, 46F_47G_49E_50I_52G_53A_54S_55F_67L_", "value": 2.123},
      {"measurement": "B03_logFC", "setting": "Degron-ID 1300, SEQ ID NO 4285, 46F_47G_49E_50V_52G_53A_54A_55F_67L_", "value": 2.243},
      {"measurement": "B03_logFC", "setting": "Degron-ID 1310, SEQ ID NO 4367, 46F_47G_49E_50V_52G_53A_54M_55F_67L_", "value": 2.092},
      {"measurement": "B03_logFC", "setting": "Degron-ID 1315, SEQ ID NO 4263, 46F_47G_49E_50V_52G_53A_54S_55F_67L_", "value": 2.274},
      {"measurement": "B03_logFC", "setting": "Degron-ID 1321, SEQ ID NO 4371, 46F_47G_49N_50I_52G_53A_54C_55F_67L_", "value": 2.085},
      {"measurement": "B03_logFC", "setting": "Degron-ID 1381, SEQ ID NO 3917, 46F_47G_49P_50I_52G_53A_54C_55F_67L", "value": 2.82},
      {"measurement": "B03_logFC", "setting": "Degron-ID 1390, SEQ ID NO 4307, 46F_47G_49P_50I_52G_53A_54M_55F_67L_", "value": 2.191},
      {"measurement": "B03_logFC", "setting": "Degron-ID 1394, SEQ ID NO 4259, 46F_47G_49P_50I_52G_53A_54R_55F_67L_", "value": 2.278},
      {"measurement": "B03_logFC", "setting": "Degron-ID 1395, SEQ ID NO 4255, 46F_47G_49P_50I_52G_53A_54S_55F_67L_", "value": 2.283},
      {"measurement": "B03_logFC", "setting": "Degron-ID 1421, SEQ ID NO 3721, 46F_47G_49P_50V_52G_53A_54C_55F_67L_", "value": 3.165},
      {"measurement": "B03_logFC", "setting": "Degron-ID 1427, SEQ ID NO 4350, 46F_47G_49P_50V_52G_53A_54I_55F_67L_", "value": 2.123},
      {"measurement": "B03_logFC", "setting": "Degron-ID 1430, SEQ ID NO 4374, 46F_47G_49P_50V_52G_53A_54M_55F_67L_", "value": 2.082},
      {"measurement": "B03_logFC", "setting": "Degron-ID 1434, SEQ ID NO 4359, 46F_47G_49P_50V_52G_53A_54R_55F_67L_", "value": 2.105},
      {"measurement": "B03_logFC", "setting": "Degron-ID 1452, SEQ ID NO 3898, 46F_47H_49D_50I_52G_53A_54P_55F_67L", "value": 2.854},
      {"measurement": "B03_logFC", "setting": "Degron-ID 1500, SEQ ID NO 3802, 46F_47H_49E_50I_52G_53A_54A_55F_67L_", "value": 3.003},
      {"measurement": "B03_logFC", "setting": "Degron-ID 1540, SEQ ID NO 3879, 46F_47H_49E_50V_52G_53A_54A_55F_67L", "value": 2.886},
      {"measurement": "B03_logFC", "setting": "Degron-ID 1541, SEQ ID NO 4274, 46F_47H_49E_50V_52G_53A_54C_55F_67L_", "value": 2.254},
      {"measurement": "B03_logFC", "setting": "Degron-ID 1552, SEQ ID NO 3720, 46F_47H_49E_50V_52G_53A_54P_55F_67L_", "value": 3.169},
      {"measurement": "B03_logFC", "setting": "Degron-ID 1560, SEQ ID NO 4250, 46F_47H_49N_50I_52G_53A_54A_55F_67L_", "value": 2.296},
      {"measurement": "B03_logFC", "setting": "Degron-ID 1572, SEQ ID NO 3801, 46F_47H_49N_50I_52G_53A_54P_55F_67L_", "value": 3.008},
      {"measurement": "B03_logFC", "setting": "Degron-ID 1575, SEQ ID NO 4425, 46F_47H_49N_50I_52G_53A_54S_55F_67L_", "value": 2.015},
      {"measurement": "B03_logFC", "setting": "Degron-ID 1620, SEQ ID NO 3938, 46F_47H_49P_50I_52G_53A_54A_55F_67L", "value": 2.78},
      {"measurement": "B03_logFC", "setting": "Degron-ID 1628, SEQ ID NO 4366, 46F_47H_49P_50I_52G_53A_54K_55F_67L_", "value": 2.092},
      {"measurement": "B03_logFC", "setting": "Degron-ID 1633, SEQ ID NO 3926, 46F_47H_49P_50I_52G_53A_54Q_55F_67L", "value": 2.797},
      {"measurement": "B03_logFC", "setting": "Degron-ID 1672, SEQ ID NO 3892, 46F_47H_49P_50V_52G_53A_54P_55F_67L", "value": 2.863},
      {"measurement": "B03_logFC", "setting": "Degron-ID 1674, SEQ ID NO 4297, 46F_47H_49P_50V_52G_53A_54R_55F_67L_", "value": 2.228},
      {"measurement": "B03_logFC", "setting": "Degron-ID 1680, SEQ ID NO 4254, 46F_47I_49D_50I_52G_53A_54A_55F_67L_", "value": 2.29},
      {"measurement": "B03_logFC", "setting": "Degron-ID 1685, SEQ ID NO 4405, 46F_47I_49D_50I_52G_53A_54G_55F_67L_", "value": 2.033},
      {"measurement": "B03_logFC", "setting": "Degron-ID 1693, SEQ ID NO 4312, 46F_47I_49D_50I_52G_53A_54Q_55F_67L_", "value": 2.187},
      {"measurement": "B03_logFC", "setting": "Degron-ID 1732, SEQ ID NO 3768, 46F_47I_49D_50V_52G_53A_54P_55F_67L_", "value": 3.083},
      {"measurement": "B03_logFC", "setting": "Degron-ID 1740, SEQ ID NO 3835, 46F_47I_49E_50I_52G_53A_54A_55F_67L_", "value": 2.951},
      {"measurement": "B03_logFC", "setting": "Degron-ID 1741, SEQ ID NO 4423, 46F_47I_49E_50I_52G_53A_54C_55F_67L_", "value": 2.016},
      {"measurement": "B03_logFC", "setting": "Degron-ID 1748, SEQ ID NO 4378, 46F_47I_49E_50I_52G_53A_54K_55F_67L_", "value": 2.073},
      {"measurement": "B03_logFC", "setting": "Degron-ID 1753, SEQ ID NO 3893, 46F_47I_49E_50I_52G_53A_54Q_55F_67L", "value": 2.862},
      {"measurement": "B03_logFC", "setting": "Degron-ID 1780, SEQ ID NO 3804, 46F_47I_49E_50V_52G_53A_54A_55F_67L_", "value": 3.001},
      {"measurement": "B03_logFC", "setting": "Degron-ID 1781, SEQ ID NO 4361, 46F_47I_49E_50V_52G_53A_54C_55F_67L_", "value": 2.101}
    ]}
  ]
}
